Measured values published in article PMC12819141, “RNase MRP subunit composition and role in 40S ribosome biogenesis” (Nature Structural & Molecular Biology, 2025).
No constants are given. Whether binding was seen depends on the method and setting. Binding seen in cells or lysates may run through a third protein. Here binding means that the protein was enriched with, or labelled near, the bait; the list need not be complete. Tags and fused reporters may be left off the sequences shown.

Tests used:
Experiment in all cases: affinity purification with mass spectrometry; label-free IP–MS; C-terminally GFP-tagged bait from HeLa lysate on Protein A beads coupled to rabbit anti-GFP antibody, 2 h at 4 °C; polysome lysis buffer (20 mM Hepes pH 7.5, 100 mM KCl, 5 mM MgCl2, 1% Triton X-100) with 1% CHAPS; compared with control GFP
[1] = target: T1, RPP21–GFP (human) (UniProt Q9H633)
T1 sequence: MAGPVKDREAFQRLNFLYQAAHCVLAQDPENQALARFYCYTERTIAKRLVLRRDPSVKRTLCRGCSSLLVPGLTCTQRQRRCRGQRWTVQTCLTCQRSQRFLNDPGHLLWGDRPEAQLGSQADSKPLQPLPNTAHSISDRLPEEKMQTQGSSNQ

[2] = target: T2, RPP14–GFP (human) (UniProt O95059)
T2 sequence: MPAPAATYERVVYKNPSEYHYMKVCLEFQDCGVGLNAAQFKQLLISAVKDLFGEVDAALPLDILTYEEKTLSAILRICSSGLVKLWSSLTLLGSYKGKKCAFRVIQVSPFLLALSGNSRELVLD

[3] = target: T3, NEPRO–GFP (human) (UniProt Q6NW34)
T3 sequence: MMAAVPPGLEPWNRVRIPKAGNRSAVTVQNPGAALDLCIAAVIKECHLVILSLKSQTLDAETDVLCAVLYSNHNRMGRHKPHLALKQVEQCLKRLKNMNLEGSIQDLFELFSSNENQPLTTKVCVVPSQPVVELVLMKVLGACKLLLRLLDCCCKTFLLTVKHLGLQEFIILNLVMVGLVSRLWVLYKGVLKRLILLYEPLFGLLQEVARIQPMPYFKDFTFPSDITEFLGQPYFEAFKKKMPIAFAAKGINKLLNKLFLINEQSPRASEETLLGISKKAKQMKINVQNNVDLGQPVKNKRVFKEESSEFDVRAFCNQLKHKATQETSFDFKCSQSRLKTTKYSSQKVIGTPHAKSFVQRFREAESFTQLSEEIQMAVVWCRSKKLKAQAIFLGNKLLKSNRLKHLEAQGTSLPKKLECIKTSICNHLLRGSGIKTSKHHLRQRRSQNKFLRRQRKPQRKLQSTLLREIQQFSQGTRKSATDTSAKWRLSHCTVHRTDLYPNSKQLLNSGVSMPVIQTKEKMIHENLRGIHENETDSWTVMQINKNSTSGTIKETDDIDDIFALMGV

[4] = target: T4, C18orf21–GFP (human) (UniProt Q32NC0)
T4 sequence: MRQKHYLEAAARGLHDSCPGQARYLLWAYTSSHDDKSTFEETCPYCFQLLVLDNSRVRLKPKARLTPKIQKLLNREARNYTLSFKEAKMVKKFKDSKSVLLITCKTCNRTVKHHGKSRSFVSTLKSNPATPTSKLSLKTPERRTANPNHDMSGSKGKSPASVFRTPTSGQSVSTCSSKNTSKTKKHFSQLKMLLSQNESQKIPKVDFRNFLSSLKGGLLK

Measured: binding

B1: RPP40 (protein, UniProt O75818 1-363)
chain: MATLRRLREAPRHLLVCEKSNFGNHKSRHRHLVQTHYYNYRVSFLIPECGILSEELKNLVMNTGPYYFVKNLPLHELITPEFISTFIKKGSCYALTYNTHIDEDNTVALLPNGKLILSLDKDTYEETGLQGHPSQFSGRKIMKFIVSIDLMELSLNLDSKKYERISWSFKEKKPLKFDFLLAWHKTGSEESTMMSYFSKYQIQEHQPKVALSTLRDLQCPVLQSSELEGTPEVSCRALELFDWLGAVFSNVDLNNEPNNFISTYCCPEPSTVVAKAYLCTITGFILPEKICLLLEHLCHYFDEPKLAPWVTLSVQGFADSPVSWEKNEHGFRKGGEHLYNFVIFNNQDYWLQMAVGANDHCPP
binds: all assays above
